This experiment can be described thus: qHTS Assay for Lipid Storage Modulators in Drosophila S3 Cells.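 As to cell number change: cells counted by Cell Tracker Red CMTPX staining in the red channel.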 The conditions noted are these: BODIPY lipid droplet fluorescence, 18-24 h; for cell number change: measured here: cell count max response, cells fed with added oleic acid. The gist of the method: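 Drosophila S3 cells got compounds at several concentrations plus oleic acid (400 uM solution). Laser-scanning cytometry with 488 nm excitation read lipid droplets at 500-530 nm and cells at 575-640 nm. Percent activity was relative to 20 uM Triacsin C.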

The mark [1] stands for this setting: measured here: lipid fluorescence (Fed channel) AC50, cells fed with added oleic acid.
[2] abbreviates: measured here: cell number channel AC50, cells fed with added oleic acid.

The other results are listed elsewhere or left out. The main result of the screen is listed elsewhere. These columns were measured beside it and carry no call. Most of these compounds were active or inconclusive in the main read-out, so they are no random draw. Potencies come from curve fits of mixed quality, noted in brackets.

As to `COC(=O)c1ccc(N2C(=O)CC(N3CCN(C(=O)c4ccco4)CC3)C2=O)cc1` (stereo not given), the cell number change was 9.59%. Also, the AC50 under setting [1] is 29100 nM [falling, partial curve].

Consider `O=C(O)CSc1nnc(-c2ccc(Cl)cc2)n1-c1ccccc1`, for which the cell number change is -1.92%.

On to `C/C(=N\N=C(N)N)c1ccc(Cl)cc1`, for which the cell number change is -6.2%. Also, the AC50 under setting [1] was 6510 nM [falling, single point].

For `Cc1ccccc1C(=O)N1CCC(C(=O)NCCc2ccc(S(N)(=O)=O)cc2)CC1`, the cell number change was 10.9%.

As for `CCOc1ccc(CC(=O)NNC(=S)Nc2ccccc2)cc1Br`, the cell number change worked out at 14.4%. Besides, the AC50 under setting [2] is 103 nM [rising, full curve, poor fit]. Moreover, the AC50 under setting [1] is 580 nM [rising, single point].

With `O=C(c1coc(=O)c(Br)c1)N1CCOCC1`, the cell number change is -107%. Besides, under setting [2], the AC50 was 25900 nM [falling, partial curve]. Besides, the AC50 under setting [1] was 23100 nM [falling, partial curve].

Take `CCCCc1nc(N2CCN(C(=O)c3ccco3)CC2)c(C#N)c2c1CCCC2`: the cell number change turned out to be 4.72%. In addition, the AC50 under setting [1] is 6510 nM [rising, single point].

Take `CCOC(=O)C1CCN(C/C=C/c2ccccc2OC)CC1`: the cell number change was -12.3%. Besides, under setting [1], the AC50 was 4.61 nM [falling, full curve, poor fit].

With `O=C(Cn1cncn1)NCCCc1ccccc1`, the cell number change is -8.61%. Further, under setting [2], the AC50 is 116 nM [falling, full curve, poor fit]. The concentration at half-maximal activity (AC50) under setting [1] was 73.1 nM [falling, full curve, poor fit].

For `O=C1c2ccccc2C(=O)N1CCCc1nc(-c2ccc(Cl)cc2)no1`, the cell number change turned out to be 2.34%.

For the molecule `COc1cc(OC)cc(C(=O)NCC(=O)NC(C)c2ccccc2)c1` (stereo not given), the cell number change was -2.78%.

For the molecule `O=C(Nc1ccccc1Cl)c1cccs1`, the cell number change was -22.5%.

For `Cc1cc(OC(C)C(=O)NCCCN2CCOCC2)ccc1Cl` (stereo not given), the cell number change is -17.9%. Under setting [1], the AC50 was 1030 nM [falling, full curve, poor fit].

With `O=C(CN1C(=O)CC(c2ccccc2)=Nc2ccccc21)NCc1ccccc1`, the cell number change is -21%. Moreover, the AC50 under setting [1] was 29100 nM [falling, single point].

As to `Cc1cccc(NC(=O)c2c(F)c(F)c(F)c(F)c2F)c1`, the cell number change is 11.7%. Also, the half-maximal activity concentration (AC50) under setting [1] was 731 nM [falling, single point].

With `Cn1c(-c2ccccc2)c(/C=N/NC(=O)c2ccc(O)cc2)c2ccccc21`, the cell number change was determined as 25.2%. Further, the AC50 under setting [2] is 326 nM [rising, full curve, poor fit].

Take `COc1ccc(CCNc2nc(C)nc3c2nnn3Cc2ccccc2)cc1OC`: the cell number change is -22.5%.

On to `CCSc1nnc(NC(=O)[C@@H](NC(=O)c2cccc(C)c2)C(C)C)s1`, for which the cell number change turned out to be 15.2%. For the same molecule, under setting [1], the AC50 is 7310 nM [rising, single point].

Turning to `Cc1ccccc1C(=O)Nc1ccc2c(c1)OCO2`, the cell number change was 30.6%. Besides, under setting [2], the AC50 was 51.7 nM [rising, full curve, poor fit].
